Taken from: PubChem BioAssay AID1508588 (Peter MacCallum Cancer Centre, 2020)
The whole screen tested about 18,000 reagents; below is an unselected part. 790 of all reagents (4.4%) count as active. 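Calls rest on a combination of fold-change classes in drug and vehicle arms, not all shown here.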 Entries without a mark were called inactive.

Screen: 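Knock-downs boosting vemurafenib effects on melanoma cell growth or lactate release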 (primary screen)
Cell system: human WM266.4 melanoma cells (BRAF V600 mutant)
Reagent: siRNA pool against human genes, 40 nM
Time to read-out: 96 h from transfection to read-out
Challenge: vemurafenib 300 nM (about IC25), added 48 h after transfection, for 48 h; comparison arm got DMSO vehicle only
Measurement: 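Cell gain (DAPI nuclei at end minus before drug, mean of two replicates) and medium lactate by absorbance per cell, both as ratio to non-targeting siRNA, also grouped into fold-change classes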
Direction: cell gain with vemurafenib: higher = more cell gain than with non-targeting siRNA; lactate per cell with vemurafenib: higher = more lactate made per cell
Call rule: 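a knock-down counts as enhancing when its fold-change classes with vehicle and with vemurafenib, taken together, show a stronger drug effect on cell gain or lactate per cell; exact class pairs not stated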
Meaning of the calls: active = enhances vemurafenib effect; inactive = no enhancement seen

The first 2 records, ahead of the listing:
SOCS3 (suppressor of cytokine signaling 3)
- cell gain with vemurafenib: 0.4
- lactate per cell with vemurafenib: 2.18

ROBO2 (roundabout guidance receptor 2)
- cell gain with vemurafenib: 0.74
- lactate per cell with vemurafenib: 0.64

The listing, from the first entry:
SOCS3 (suppressor of cytokine signaling 3)
- cell gain with vemurafenib: 0.4
- lactate per cell with vemurafenib: 2.18

ROBO2 (roundabout guidance receptor 2)
- cell gain with vemurafenib: 0.74
- lactate per cell with vemurafenib: 0.64

EPCAM (epithelial cell adhesion molecule)
- cell gain with vemurafenib: 0.89
- lactate per cell with vemurafenib: 0.99

HOXD8 (homeobox D8)
- cell gain with vemurafenib: 0.59
- lactate per cell with vemurafenib: 0.68

CD200R1 (CD200 receptor 1)
- cell gain with vemurafenib: 0.81
- lactate per cell with vemurafenib: 0.84

ZNF684 (zinc finger protein 684)
- cell gain with vemurafenib: 0.04
- lactate per cell with vemurafenib: 1.08

UBE2D2 (ubiquitin conjugating enzyme E2 D2)
- cell gain with vemurafenib: 0.56
- lactate per cell with vemurafenib: 0.81

BTN3A2 (butyrophilin subfamily 3 member A2)
- cell gain with vemurafenib: 0.64
- lactate per cell with vemurafenib: 0.77

ANO1 (anoctamin 1)
- cell gain with vemurafenib: 0.52
- lactate per cell with vemurafenib: 1.33

SLC4A1AP
- cell gain with vemurafenib: 0.82
- lactate per cell with vemurafenib: 1.05

FOXL1 (forkhead box L1)
- cell gain with vemurafenib: 0.07
- lactate per cell with vemurafenib: 1.58

MSANTD4 (Myb/SANT DNA binding domain containing 4 with coiled-coils)
- cell gain with vemurafenib: 1.04
- lactate per cell with vemurafenib: 0.82

RPS9 (ribosomal protein S9)
- cell gain with vemurafenib: 0.88
- lactate per cell with vemurafenib: 0.87

DOCK11 (dedicator of cytokinesis 11)
- cell gain with vemurafenib: -0.08 (active)
- lactate per cell with vemurafenib: 0.52

ARHGAP25 (Rho GTPase activating protein 25)
- cell gain with vemurafenib: 0.44
- lactate per cell with vemurafenib: 0.76

GGCT (gamma-glutamylcyclotransferase)
- cell gain with vemurafenib: 0.43
- lactate per cell with vemurafenib: 1.46

ITGA7 (integrin subunit alpha 7)
- cell gain with vemurafenib: 0.27
- lactate per cell with vemurafenib: 1.96

HSPA1A (heat shock protein family A (Hsp70) member 1A)
- cell gain with vemurafenib: 1.09
- lactate per cell with vemurafenib: 0.82

ZNF670 (zinc finger protein 670)
- cell gain with vemurafenib: 0.91
- lactate per cell with vemurafenib: 1.04

HIGD1B (HIG1 hypoxia inducible domain family member 1B)
- cell gain with vemurafenib: 0.8
- lactate per cell with vemurafenib: 0.86

ACBD6 (acyl-CoA binding domain containing 6)
- cell gain with vemurafenib: 0.69
- lactate per cell with vemurafenib: 1.06

IARS1 (isoleucyl-tRNA synthetase 1)
- cell gain with vemurafenib: 0.28
- lactate per cell with vemurafenib: 1.28

MAGOHB (mago homolog B, exon junction complex subunit)
- cell gain with vemurafenib: 0.69
- lactate per cell with vemurafenib: 0.9

CAMP (cathelicidin antimicrobial peptide)
- cell gain with vemurafenib: 0.3
- lactate per cell with vemurafenib: 1.08

BAD (BCL2 associated agonist of cell death)
- cell gain with vemurafenib: 0.68 (active)
- lactate per cell with vemurafenib: 0.6

TBCA (tubulin folding cofactor A)
- cell gain with vemurafenib: 0.52
- lactate per cell with vemurafenib: 1.22

IL16 (interleukin 16)
- cell gain with vemurafenib: 0.54
- lactate per cell with vemurafenib: 0.52
